Laboratory results reported in publication PMC3735459.
Results are given in words; binding and its absence hold for the method and conditions named. Binding seen in cells or lysates may run through a third protein. Binding calls can cover weak binding; strength is not graded here.

What was measured:
[1] = target: T1, Hippo (Hpo), transfected (Drosophila melanogaster) (UniProt Q8T0S6); assay: co-IP; S2 cells co-transfected with HA-tagged full-length or truncated Par-1 and Hpo, Sav, Wts or Mats; lysates immunoprecipitated, Western blot (Figures 5A-5B, S4B)
T1 sequence: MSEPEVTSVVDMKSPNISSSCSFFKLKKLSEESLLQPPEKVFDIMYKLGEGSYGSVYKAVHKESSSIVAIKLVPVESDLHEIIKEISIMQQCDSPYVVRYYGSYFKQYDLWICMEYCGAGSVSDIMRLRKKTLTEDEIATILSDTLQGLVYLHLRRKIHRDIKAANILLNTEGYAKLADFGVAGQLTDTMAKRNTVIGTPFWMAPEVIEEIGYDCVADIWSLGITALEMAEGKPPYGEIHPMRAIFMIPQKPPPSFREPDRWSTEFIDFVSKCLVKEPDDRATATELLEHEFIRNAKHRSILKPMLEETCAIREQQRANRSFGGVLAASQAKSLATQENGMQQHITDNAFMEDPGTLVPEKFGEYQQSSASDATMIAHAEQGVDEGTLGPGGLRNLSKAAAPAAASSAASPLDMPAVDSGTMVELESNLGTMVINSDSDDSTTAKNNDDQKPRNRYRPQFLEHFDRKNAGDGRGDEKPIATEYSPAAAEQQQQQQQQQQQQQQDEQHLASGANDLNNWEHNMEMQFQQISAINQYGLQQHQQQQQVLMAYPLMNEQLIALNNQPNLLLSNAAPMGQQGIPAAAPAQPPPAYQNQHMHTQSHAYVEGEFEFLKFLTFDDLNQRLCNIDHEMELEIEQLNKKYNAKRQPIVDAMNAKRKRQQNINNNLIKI

[2] = target: T2, Salvador (Sav), transfected (Drosophila melanogaster) (UniProt Q9VCR6); assay: as above
T2 sequence: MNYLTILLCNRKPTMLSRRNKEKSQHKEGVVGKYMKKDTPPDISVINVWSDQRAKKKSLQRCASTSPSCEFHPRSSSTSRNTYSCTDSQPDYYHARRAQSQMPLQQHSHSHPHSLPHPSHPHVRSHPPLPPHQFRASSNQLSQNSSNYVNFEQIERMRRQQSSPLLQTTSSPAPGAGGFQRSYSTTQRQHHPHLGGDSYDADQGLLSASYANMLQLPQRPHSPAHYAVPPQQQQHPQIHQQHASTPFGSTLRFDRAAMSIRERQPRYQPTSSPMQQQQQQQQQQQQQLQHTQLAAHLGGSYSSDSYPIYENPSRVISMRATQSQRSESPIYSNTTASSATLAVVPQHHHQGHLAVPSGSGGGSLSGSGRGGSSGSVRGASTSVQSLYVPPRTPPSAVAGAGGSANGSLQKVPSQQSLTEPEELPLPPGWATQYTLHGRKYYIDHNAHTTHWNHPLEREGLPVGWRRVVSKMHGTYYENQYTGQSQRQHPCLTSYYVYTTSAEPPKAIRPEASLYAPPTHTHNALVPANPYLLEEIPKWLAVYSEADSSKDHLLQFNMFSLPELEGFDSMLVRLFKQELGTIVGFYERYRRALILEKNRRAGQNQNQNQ

| Substance | binding [1] | binding [2] |
| --- | --- | --- |
| HA-tagged C-terminal fragment of Par-1 (Par-1-C) (Drosophila melanogaster) (domain or fragment) | binds weakly | binds weakly |
| HA-tagged N-terminal fragment of Par-1 (Par-1-N) (Drosophila melanogaster) (domain or fragment) | binds | binds |
| HA-tagged full-length Par-1 (Par-1-N1S) (from UniProt A1ZBL6) | binds weakly | binds weakly |
